# Library screen at single concentrations

By UniProt entry, the sequences of proteins in these tests, tags left out. Residues count along the entry.
UniProt P9WNZ1, whole entry: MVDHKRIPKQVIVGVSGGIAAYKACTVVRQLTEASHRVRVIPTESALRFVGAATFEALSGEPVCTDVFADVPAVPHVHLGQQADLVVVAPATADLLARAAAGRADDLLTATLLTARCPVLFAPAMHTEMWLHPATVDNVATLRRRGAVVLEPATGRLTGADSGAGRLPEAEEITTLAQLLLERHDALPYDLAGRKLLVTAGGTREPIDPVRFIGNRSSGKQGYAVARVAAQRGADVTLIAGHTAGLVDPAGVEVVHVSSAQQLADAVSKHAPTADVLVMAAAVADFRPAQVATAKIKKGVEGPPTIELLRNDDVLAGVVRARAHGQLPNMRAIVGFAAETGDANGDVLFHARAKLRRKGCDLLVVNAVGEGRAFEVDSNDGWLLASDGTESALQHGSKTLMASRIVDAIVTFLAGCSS
UniProt A4I591, 1-473: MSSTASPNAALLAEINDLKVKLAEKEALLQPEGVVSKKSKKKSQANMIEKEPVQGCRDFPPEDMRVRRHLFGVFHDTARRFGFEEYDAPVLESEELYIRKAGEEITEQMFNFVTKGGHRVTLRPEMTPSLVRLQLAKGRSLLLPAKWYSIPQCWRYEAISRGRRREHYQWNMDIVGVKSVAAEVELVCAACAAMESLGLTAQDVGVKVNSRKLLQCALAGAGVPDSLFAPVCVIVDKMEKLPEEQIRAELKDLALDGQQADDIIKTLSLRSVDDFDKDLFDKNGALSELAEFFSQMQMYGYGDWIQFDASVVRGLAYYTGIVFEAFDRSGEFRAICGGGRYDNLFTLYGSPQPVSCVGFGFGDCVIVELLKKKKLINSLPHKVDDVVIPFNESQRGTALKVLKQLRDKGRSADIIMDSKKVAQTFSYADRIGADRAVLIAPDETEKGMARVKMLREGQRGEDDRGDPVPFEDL

The filed quantity is “Percent Effect” (%). The controls that fix the scale are not given in the record; negative values are as filed. This is an unselected part of the compounds tested.

CoaBC: 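Coenzyme A biosynthesis protein CoaBC, Mycobacterium tuberculosis (UniProt P9WNZ1). Enzyme assay of CoaBC with a phosphate dye (Biomol Green) read at 650 nm. Tested at 30 µM. Higher reads as stronger inhibition, judged from the few compounds that gave an IC50. Most strong results did not repeat in a second test. Size under these conditions: about 67,000 compounds, about 40 of them at 50% or above in at least one test.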
LiHisRS: 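Histidine-tRNA ligase, Leishmania infantum (UniProt A4I591). Enzyme assay of histidyl-tRNA synthetase; the read-out is not stated. Tested at 30 µM. Higher reads as stronger inhibition (inferred: compounds with an IC50 in retests scored well above the rest). The assay is labelled LdHisRS but filed under L. infantum. About 69,000 compounds were tested under these conditions; 0.6% (about 410) showed 50% or more at least once.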
Leishmania in macrophages: 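Cell assay of Leishmania donovani living inside macrophages; the read-out is not stated. Concentration: 30 µM. The record gives no direction; compounds that gave an IC50 in retests scored well above the rest, so higher reads as stronger inhibition. Of about 69,000 compounds tested this way, about 1,000 (1.5%) reached 50% or more in at least one test.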

* OC(COCc1ccc2c(c1)OCO2)CN1CC(n2cccn2)C1 (stereo not drawn) : CoaBC: 0.8872%; LiHisRS: 17.86%; Leishmania in macrophages: 21.91%
* [H][C@]12CC[C@]([H])(CN(C(=O)c3cnc(O)cn3)C1)N(Cc1ccccc1)C2 : Leishmania in macrophages: 14.47%
* CCn1ccnc1CN1CCCC(CO)(Cc2cccc(OC)c2)C1 (stereo not drawn) : CoaBC: 3.004%; LiHisRS: 6.557%; Leishmania in macrophages: 17.76%
* O=C(c1ccc(Cl)cc1)N1CCC(N2CCNC2=O)CC1 : CoaBC: -1.316%; LiHisRS: 12.41%; Leishmania in macrophages: 18.89%
* CCS(=O)(=O)N1CC[C@H]2O[C@H](c3nnc(C)o3)CC[C@H]21 : CoaBC: 1.015%; LiHisRS: 5.882%
* Cc1cc2c(cc1NC(N)=O)OCO2 : CoaBC: 2.357%; LiHisRS: 8.602%; Leishmania in macrophages: 10.64%
* CSc1ccccc1NC(=O)N1C[C@@H](N(C)C)[C@H](c2ccc(C)cc2)C1 : CoaBC: 6.641%; LiHisRS: 23.38%; Leishmania in macrophages: -23.38%
* N#Cc1ccc(N2CCN(c3cnccn3)CC2)cc1C(F)(F)F : CoaBC: -1.789%; LiHisRS: 12.61%; Leishmania in macrophages: -19.41%
* CC(C)CN1CCC(C(=O)Nc2cc(C(F)(F)F)c[nH]c2=O)CC1 : CoaBC: 2.169%; LiHisRS: 16.44%; Leishmania in macrophages: 29.56%
* CC(C(=O)N(C)Cc1noc(C2CCC2)n1)N1CCc2ccccc2C1 (stereo not drawn) : CoaBC: 0.9639%; LiHisRS: 18.68%; Leishmania in macrophages: 41.6%
* O=C(NCc1ccc(-n2cncn2)nc1)c1cnccn1 : CoaBC: 6.472%; LiHisRS: 31.76%; Leishmania in macrophages: 48.02%
* Cc1noc(C)c1CN1CCn2c(COC(C)C)nnc2C1 : CoaBC: 1.97%; LiHisRS: 6%; Leishmania in macrophages: 8.816%
* CN(CCCOc1ccccc1Cl)C(=O)CN1C[C@@H]2CC[C@H](CC1=O)N2 : CoaBC: 4.151%; LiHisRS: 17.7%
* CC(=O)Nc1cccc(OCCNC(=O)N(C)Cc2ccncc2)c1 : CoaBC: 13.64%; LiHisRS: 16.96%; Leishmania in macrophages: -10.26%
* C1CC(CO[C@@H]2CC[C@H]3[C@H]2OCCN3CC2CC2)CCO1 : CoaBC: 0.6402%; LiHisRS: 14.81%
* Cn1c2c(ccc1=O)CC(NC(=O)c1ccsc1)CC2 (stereo not drawn) : CoaBC: 4.242%; LiHisRS: 13.46%; Leishmania in macrophages: 9.479%
* Cn1cc(CNC[C@H]2Cn3ccnc3CO2)c2ccccc21 : CoaBC: -7.726%; LiHisRS: 25.68%; Leishmania in macrophages: -0.2609%
* CN(C)CCNc1cc(-c2ncccc2Cl)c2cc[nH]c2n1 : CoaBC: -35.79%; LiHisRS: 15.62%; Leishmania in macrophages: 30.68%
* c1cnn(CCNCCCOc2ccc3c(c2)OCO3)c1 : CoaBC: -4.497%; LiHisRS: 13.79%; Leishmania in macrophages: 19.09%
* O=C(c1ccc2c(c1)CCC2)N1C[C@@H](CN2CCOCC2)[C@@H](CO)C1 : CoaBC: 2.679%; LiHisRS: 8.738%; Leishmania in macrophages: 10.84%
* Cc1nnc2n1CCN(C(=O)c1cc(Cl)c(Cl)n1C)C2 : CoaBC: 0.5319%; LiHisRS: 34.4%; Leishmania in macrophages: 19.88%
* O=C(C1CCOCC1)N1CCc2ncnc(-c3ccccc3)c2CC1 : CoaBC: 0%; LiHisRS: 11.11%; Leishmania in macrophages: 18.24%
* COc1cccc2c1N(C(=O)c1ccc(C)nc1)CCC2 : CoaBC: 7.403%; LiHisRS: 11.86%; Leishmania in macrophages: -0.5279%

The last 2 entries again:

Compound,CoaBC,LiHisRS,Leishmania in macrophages
O=C(C1CCOCC1)N1CCc2ncnc(-c3ccccc3)c2CC1,0,11.11,18.24
COc1cccc2c1N(C(=O)c1ccc(C)nc1)CCC2,7.403,11.86,-0.5279

From ChEMBL document CHEMBL3988442, “University of Dundee, Small-Polar-MMV Screening Library” (2021).